These are yes or no findings as the source states them, for the method shown. Binding seen in cells or lysates may run through a third protein. Some entries that bind do so weakly or less than the wild type.
Biological target: minichromosome maintenance 2 (MCM2) (human (endogenous in H9 hESCs)) (UniProt P49736)
Assay: co-IP; lysate of H9 hESCs treated with siControl or siESRG; primary antibody or mouse IgG for 4 h, protein A/G PLUS beads overnight, washed at least three times with lysis buffer; precipitating antibody not told

Amino acid sequences for entries named in this document (tags omitted).
UniProt P49736: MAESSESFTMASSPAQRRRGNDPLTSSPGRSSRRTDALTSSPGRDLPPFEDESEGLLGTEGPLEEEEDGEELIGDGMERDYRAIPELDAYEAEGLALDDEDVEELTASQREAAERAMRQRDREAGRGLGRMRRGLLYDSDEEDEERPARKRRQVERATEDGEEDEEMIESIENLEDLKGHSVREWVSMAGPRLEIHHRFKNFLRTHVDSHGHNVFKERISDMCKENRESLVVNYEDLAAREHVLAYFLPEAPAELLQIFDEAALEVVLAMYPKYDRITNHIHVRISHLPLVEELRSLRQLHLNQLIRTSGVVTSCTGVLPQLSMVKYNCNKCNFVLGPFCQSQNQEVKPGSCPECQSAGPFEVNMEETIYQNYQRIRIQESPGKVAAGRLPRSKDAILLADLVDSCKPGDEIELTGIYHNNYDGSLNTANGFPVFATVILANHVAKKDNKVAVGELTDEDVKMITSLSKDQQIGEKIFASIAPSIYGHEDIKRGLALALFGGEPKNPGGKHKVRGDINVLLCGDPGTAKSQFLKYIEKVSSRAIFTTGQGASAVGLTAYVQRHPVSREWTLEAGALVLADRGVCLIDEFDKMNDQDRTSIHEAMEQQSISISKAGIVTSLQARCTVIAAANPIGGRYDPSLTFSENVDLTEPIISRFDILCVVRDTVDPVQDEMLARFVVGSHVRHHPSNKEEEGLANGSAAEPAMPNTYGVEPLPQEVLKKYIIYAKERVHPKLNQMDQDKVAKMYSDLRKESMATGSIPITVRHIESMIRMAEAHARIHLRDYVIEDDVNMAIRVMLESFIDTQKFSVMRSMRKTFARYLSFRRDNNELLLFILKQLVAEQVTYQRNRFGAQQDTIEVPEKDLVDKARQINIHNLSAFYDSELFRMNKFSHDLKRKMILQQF

binding: binds
B1: TRAIP (protein, UniProt Q9BWF2 1-469)
chain: MPIRALCTICSDFFDHSRDVAAIHCGHTFHLQCLIQWFETAPSRTCPQCRIQVGKRTIINKLFFDLAQEEENVLDAEFLKNELDNVRAQLSQKDKEKRDSQVIIDTLRDTLEERNATVVSLQQALGKAEMLCSTLKKQMKYLEQQQDETKQAQEEARRLRSKMKTMEQIELLLQSQRPEVEEMIRDMGVGQSAVEQLAVYCVSLKKEYENLKEARKASGEVADKLRKDLFSSRSKLQTVYSELDQAKLELKSAQKDLQSADKEIMSLKKKLTMLQETLNLPPVASETVDRLVLESPAPVEVNLKLRRPSFRDDIDLNATFDVDTPPARPSSSQHGYYEKLCLEKSHSPIQDVPKKICKGPRKESQLSLGGQSCAGEPDEELVGAFPIFVRNAILGQKQPKRPRSESSCSKDVVRTGFDGLGGRTKFIQPTDTVMIRPLPVKPKTKVKQRVRVKTVPSLFQAKLDTFLWS

From publication PMC9909993
